Measured data: PubChem BioAssay AID1259425 (University of Nebraska Medical Center, 2018)
Shown is a random part of about 14,000 deposited reagents. The record does not give: the time to read-out.

- Test: 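Compare each knockdown with KSR1 silencing using changes in marker transcripts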 (primary screen)
- System: HCT116 human colon cancer cells
- Knock-down reagent: siRNA pool against human genes, 50 nM siRNA
- Read-out: 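After 50 nM siRNA pool, branched-DNA assay measures six marker transcripts per well, minus blank, normalised to the geometric mean of two housekeeping transcripts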
- Reading the numbers: BNIP3L mRNA: higher = more BNIP3L transcript after knockdown; NDRG1 mRNA: higher = more NDRG1 transcript after knockdown; BNIP3 mRNA: higher = more BNIP3 transcript after knockdown; ALDOC mRNA: higher = more ALDOC transcript after knockdown; ACSL5 mRNA: higher = more ACSL5 transcript after knockdown

Target gene | BNIP3L mRNA, set 1 | NDRG1 mRNA, set 1 | BNIP3 mRNA, set 1 | ALDOC mRNA, set 1 | ACSL5 mRNA, set 1
MED21 (mediator complex subunit 21) | 0.145 | 0.208 | 0.291 | 0.0367 | 0.125
CPEB4 (cytoplasmic polyadenylation element binding protein 4) | 0.165 | 0.305 | 0.406 | 0.0418 | 0.286
LILRA2 (leukocyte immunoglobulin like receptor A2) | 0.11 | 0.219 | 0.26 | 0.0412 | 0.141
SEMA6D (semaphorin 6D) | 0.124 | 0.18 | 0.303 | 0.0298 | 0.26
TYRP1 (tyrosinase related protein 1) | 0.05 | 0.172 | 0.306 | 0.0174 | 0.11
FAM110A (family with sequence similarity 110 member A) | 0.277 | 0.472 | 0.373 | 0.0755 | 0.384
GUCA1B (guanylate cyclase activator 1B) | 0.128 | 0.212 | 0.234 | 0.0226 | 0.231
ZNF394 (zinc finger protein 394) | 0.382 | 0.329 | 0.377 | 0.12 | 0.335
RELN (reelin) | 0.0708 | 0.133 | 0.349 | 0.0298 | 0.171
PARD6A (par-6 family cell polarity regulator alpha) | 0.124 | 0.14 | 0.332 | 0.0199 | 0.151
ACSM5 (acyl-CoA synthetase medium chain family member 5) | 0.262 | 0.449 | 0.58 | 0.0596 | 0.421
TSSK4 (testis specific serine kinase 4) | 0.0987 | 0.0877 | 0.268 | 0.0121 | 0.184
ARL14 (ARF like GTPase 14) | 0.0765 | 0.218 | 0.319 | 0.0156 | 0.104
ERP44 (endoplasmic reticulum protein 44) | 0.0633 | 0.219 | 0.189 | 0.0269 | 0.173
ERMP1 (endoplasmic reticulum metallopeptidase 1) | 0.137 | 0.174 | 0.249 | 0.0555 | 0.226
TBC1D7 (TBC1 domain family member 7) | 0.123 | 0.141 | 0.459 | 0.0431 | 0.157
GSDMD (gasdermin D) | 0.112 | 0.155 | 0.233 | 0.0316 | 0.121
PTGFR (prostaglandin F receptor) | 0.432 | 0.128 | 0.289 | 0.0288 | 0.289
CASS4 (Cas scaffold protein family member 4) | 0.145 | 0.193 | 0.274 | 0.0368 | 0.31
MXD3 (MAX dimerization protein 3) | 0.165 | 0.103 | 0.321 | 0.083 | 0.106

Laid out differently: entries from further up
{"Target gene": "TBC1D7 (TBC1 domain family member 7)", "BNIP3L mRNA, set 1": 0.123, "NDRG1 mRNA, set 1": 0.141, "BNIP3 mRNA, set 1": 0.459, "ALDOC mRNA, set 1": 0.0431, "ACSL5 mRNA, set 1": 0.157}
{"Target gene": "GSDMD (gasdermin D)", "BNIP3L mRNA, set 1": 0.112, "NDRG1 mRNA, set 1": 0.155, "BNIP3 mRNA, set 1": 0.233, "ALDOC mRNA, set 1": 0.0316, "ACSL5 mRNA, set 1": 0.121}
